From article PMC7283227
These are yes or no findings as the source states them, for the method shown. Binding seen in cells or lysates may run through a third protein. Some results given as binding are weak or reduced against the parent protein; the word gives no strength.

Amino acid sequences for entries named in this document (tags omitted). Residues count along the entry.
UniProt P24821, residues 23-2201: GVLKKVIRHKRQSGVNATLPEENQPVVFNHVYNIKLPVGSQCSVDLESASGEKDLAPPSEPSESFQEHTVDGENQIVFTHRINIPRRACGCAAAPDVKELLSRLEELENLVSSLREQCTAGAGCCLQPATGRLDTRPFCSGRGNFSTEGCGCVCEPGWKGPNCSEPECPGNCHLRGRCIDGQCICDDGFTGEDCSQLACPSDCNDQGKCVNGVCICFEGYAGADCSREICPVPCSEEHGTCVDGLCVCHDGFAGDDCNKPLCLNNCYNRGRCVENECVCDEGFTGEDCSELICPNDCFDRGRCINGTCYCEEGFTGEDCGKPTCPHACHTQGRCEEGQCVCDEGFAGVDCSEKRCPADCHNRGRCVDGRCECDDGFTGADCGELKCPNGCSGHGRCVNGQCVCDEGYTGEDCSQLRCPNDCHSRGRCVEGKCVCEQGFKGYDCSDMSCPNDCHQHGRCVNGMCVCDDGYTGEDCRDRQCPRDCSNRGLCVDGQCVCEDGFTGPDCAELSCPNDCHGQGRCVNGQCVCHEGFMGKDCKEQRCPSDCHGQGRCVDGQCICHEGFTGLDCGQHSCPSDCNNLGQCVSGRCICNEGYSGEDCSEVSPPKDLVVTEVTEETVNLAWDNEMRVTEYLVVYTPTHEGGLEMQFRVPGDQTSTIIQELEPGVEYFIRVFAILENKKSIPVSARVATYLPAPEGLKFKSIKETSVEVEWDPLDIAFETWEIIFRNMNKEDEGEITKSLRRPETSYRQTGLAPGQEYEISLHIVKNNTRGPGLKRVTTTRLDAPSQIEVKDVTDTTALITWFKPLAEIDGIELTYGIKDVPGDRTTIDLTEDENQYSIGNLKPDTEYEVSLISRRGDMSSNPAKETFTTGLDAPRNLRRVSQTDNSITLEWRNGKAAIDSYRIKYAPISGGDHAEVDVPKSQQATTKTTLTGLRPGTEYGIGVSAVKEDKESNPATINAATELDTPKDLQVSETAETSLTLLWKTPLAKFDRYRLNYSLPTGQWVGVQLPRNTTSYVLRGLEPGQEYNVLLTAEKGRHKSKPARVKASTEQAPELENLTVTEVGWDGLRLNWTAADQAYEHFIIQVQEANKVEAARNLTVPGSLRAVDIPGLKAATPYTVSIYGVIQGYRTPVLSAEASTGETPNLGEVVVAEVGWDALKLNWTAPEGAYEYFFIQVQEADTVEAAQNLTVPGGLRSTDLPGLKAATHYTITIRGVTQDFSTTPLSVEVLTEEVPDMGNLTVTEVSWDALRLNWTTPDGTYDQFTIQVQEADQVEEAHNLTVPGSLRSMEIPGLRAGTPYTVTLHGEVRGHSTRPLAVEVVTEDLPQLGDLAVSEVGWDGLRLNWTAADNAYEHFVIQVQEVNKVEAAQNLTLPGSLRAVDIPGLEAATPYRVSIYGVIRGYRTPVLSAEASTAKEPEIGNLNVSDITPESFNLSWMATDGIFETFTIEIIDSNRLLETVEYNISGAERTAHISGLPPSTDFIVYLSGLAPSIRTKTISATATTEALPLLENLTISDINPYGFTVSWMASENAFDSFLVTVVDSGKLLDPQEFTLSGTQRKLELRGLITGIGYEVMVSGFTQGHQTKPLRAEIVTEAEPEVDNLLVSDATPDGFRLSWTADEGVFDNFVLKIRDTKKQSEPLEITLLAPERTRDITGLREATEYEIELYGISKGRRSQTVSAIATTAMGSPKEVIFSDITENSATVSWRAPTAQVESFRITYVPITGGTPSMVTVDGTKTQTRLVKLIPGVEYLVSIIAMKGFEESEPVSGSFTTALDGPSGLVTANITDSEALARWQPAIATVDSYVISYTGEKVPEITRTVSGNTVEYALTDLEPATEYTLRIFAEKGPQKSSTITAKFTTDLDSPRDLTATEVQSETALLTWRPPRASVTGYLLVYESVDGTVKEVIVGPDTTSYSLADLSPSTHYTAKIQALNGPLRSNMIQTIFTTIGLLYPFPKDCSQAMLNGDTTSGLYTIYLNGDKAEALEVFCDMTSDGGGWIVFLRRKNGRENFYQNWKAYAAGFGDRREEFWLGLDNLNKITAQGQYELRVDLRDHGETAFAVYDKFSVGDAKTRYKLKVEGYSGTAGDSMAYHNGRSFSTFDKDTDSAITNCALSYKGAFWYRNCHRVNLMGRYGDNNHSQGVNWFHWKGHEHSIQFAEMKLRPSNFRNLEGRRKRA
UniProt P02751, residues 32-2477: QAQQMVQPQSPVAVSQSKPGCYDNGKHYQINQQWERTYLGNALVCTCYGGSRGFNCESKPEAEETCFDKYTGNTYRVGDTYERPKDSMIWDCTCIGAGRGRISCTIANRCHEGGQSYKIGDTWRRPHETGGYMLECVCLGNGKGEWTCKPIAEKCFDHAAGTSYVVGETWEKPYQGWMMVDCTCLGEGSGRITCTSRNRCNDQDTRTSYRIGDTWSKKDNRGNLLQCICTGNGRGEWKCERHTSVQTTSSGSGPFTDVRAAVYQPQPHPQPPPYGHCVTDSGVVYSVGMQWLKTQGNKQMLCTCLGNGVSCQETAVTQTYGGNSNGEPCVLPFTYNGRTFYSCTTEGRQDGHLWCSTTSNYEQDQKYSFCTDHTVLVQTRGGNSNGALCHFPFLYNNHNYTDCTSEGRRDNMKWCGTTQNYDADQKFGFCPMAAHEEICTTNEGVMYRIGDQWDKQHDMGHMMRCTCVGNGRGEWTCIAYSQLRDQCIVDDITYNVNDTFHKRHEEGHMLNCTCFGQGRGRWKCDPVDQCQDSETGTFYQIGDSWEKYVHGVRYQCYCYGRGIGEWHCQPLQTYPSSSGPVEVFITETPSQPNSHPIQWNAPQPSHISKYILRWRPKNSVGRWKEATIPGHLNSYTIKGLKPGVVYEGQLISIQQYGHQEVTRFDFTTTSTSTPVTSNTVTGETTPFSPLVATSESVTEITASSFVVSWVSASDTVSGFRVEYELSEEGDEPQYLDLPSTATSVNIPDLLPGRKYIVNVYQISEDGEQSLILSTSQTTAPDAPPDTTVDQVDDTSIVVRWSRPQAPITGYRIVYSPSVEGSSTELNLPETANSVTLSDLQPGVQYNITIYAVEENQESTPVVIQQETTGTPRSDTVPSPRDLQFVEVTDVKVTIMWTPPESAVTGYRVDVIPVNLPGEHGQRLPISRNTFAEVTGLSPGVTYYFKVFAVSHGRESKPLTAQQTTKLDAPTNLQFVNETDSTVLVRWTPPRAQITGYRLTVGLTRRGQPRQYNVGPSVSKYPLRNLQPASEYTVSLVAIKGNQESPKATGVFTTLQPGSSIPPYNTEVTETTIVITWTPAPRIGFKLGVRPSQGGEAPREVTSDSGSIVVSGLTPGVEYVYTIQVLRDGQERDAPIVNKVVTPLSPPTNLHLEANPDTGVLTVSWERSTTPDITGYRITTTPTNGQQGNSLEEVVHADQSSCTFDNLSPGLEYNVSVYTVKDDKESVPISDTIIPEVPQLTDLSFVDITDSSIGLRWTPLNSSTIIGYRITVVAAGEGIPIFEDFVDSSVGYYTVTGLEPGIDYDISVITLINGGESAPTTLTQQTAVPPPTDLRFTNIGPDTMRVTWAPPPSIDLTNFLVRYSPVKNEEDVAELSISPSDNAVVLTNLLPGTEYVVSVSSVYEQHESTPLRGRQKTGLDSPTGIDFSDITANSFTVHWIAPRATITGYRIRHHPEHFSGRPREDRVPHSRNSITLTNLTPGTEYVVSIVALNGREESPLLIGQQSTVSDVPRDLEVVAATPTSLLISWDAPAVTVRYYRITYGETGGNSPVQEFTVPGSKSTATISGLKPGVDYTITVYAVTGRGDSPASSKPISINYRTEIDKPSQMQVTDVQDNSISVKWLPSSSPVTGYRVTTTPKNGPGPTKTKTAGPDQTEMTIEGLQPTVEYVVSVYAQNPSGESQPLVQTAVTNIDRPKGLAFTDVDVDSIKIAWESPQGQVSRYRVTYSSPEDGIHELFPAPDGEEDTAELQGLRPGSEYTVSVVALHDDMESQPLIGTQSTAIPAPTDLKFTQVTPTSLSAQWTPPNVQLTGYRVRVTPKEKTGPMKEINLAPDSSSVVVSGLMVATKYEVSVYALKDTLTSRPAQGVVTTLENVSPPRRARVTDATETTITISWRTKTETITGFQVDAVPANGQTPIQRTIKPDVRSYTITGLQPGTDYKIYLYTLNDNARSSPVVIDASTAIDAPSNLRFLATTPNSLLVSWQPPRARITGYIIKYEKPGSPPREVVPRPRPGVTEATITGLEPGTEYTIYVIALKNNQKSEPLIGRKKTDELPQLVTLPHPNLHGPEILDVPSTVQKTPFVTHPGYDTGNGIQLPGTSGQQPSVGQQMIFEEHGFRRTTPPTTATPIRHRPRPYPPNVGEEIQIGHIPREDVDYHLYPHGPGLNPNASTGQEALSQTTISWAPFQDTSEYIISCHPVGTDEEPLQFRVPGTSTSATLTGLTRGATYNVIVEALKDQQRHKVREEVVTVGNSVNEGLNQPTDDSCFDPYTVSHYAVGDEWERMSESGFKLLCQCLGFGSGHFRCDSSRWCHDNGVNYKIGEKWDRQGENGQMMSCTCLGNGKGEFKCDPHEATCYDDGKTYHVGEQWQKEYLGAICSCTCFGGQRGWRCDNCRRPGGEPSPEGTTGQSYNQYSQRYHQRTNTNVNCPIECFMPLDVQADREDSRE

Key:
Assay in all cases: co-IP; lysates of HRECs incubated 72 h with 10 ng/ml IL-13, lysis buffer without SDS (25 mM Tris-HCl, 150 mM NaCl, 1% Triton X-100); precipitated with anti-PN, anti-TNC or anti-FN antibodies (IgG as control) overnight at 4 °C and agarose beads; western blot with anti-PN, anti-TNC and anti-FN
[1] = target: tenascin-C (human (endogenous in HRECs)) (UniProt P24821)
[2] = target: fibronectin (human (endogenous in HRECs)) (UniProt P02751)
[3] = target: T1, periostin (human (endogenous in HRECs)) (UniProt Q15063)
T1 sequence: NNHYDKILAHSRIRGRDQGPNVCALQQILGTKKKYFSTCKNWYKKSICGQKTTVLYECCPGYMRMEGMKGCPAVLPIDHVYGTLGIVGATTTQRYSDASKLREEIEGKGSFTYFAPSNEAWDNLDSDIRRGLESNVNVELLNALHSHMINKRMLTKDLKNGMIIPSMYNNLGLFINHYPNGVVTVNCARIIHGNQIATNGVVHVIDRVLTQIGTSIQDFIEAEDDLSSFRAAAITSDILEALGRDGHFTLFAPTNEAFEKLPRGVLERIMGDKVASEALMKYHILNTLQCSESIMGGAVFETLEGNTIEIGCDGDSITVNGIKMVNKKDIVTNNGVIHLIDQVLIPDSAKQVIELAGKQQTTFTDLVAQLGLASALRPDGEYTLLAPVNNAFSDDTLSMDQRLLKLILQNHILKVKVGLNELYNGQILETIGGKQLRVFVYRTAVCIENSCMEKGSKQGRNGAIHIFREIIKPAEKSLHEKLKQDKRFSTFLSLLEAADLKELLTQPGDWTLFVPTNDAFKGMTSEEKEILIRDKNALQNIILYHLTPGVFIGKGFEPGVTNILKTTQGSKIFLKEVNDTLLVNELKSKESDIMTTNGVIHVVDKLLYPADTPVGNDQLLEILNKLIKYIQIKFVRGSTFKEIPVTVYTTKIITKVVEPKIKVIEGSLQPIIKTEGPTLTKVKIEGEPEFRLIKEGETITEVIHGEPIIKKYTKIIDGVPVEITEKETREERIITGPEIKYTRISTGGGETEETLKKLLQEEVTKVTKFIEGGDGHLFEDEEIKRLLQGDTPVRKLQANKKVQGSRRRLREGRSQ

Row | binding [1] | binding [2] | binding [3] | Substance
1 | binds | – | – | fibronectin (from UniProt P02751 32-2477)
2 | – | binds | binds | tenascin-C (from UniProt P24821 23-2201)
